Results are given in words; binding and its absence hold for the method and conditions named. In cells and extracts the contact can be indirect. Some entries that bind do so weakly or less than the wild type.
Target: wild-type TSC2 protein (Homo sapiens (Human)) (UniProt P49815)
Assay: co-immunoprecipitation from transfected HEK293T cells, immunoblot

By UniProt entry, the sequences of proteins in these tests, tags left out. Where a name states a change or a piece, a line headed by the entry shows the natural chain unless it says otherwise.
UniProt P49815: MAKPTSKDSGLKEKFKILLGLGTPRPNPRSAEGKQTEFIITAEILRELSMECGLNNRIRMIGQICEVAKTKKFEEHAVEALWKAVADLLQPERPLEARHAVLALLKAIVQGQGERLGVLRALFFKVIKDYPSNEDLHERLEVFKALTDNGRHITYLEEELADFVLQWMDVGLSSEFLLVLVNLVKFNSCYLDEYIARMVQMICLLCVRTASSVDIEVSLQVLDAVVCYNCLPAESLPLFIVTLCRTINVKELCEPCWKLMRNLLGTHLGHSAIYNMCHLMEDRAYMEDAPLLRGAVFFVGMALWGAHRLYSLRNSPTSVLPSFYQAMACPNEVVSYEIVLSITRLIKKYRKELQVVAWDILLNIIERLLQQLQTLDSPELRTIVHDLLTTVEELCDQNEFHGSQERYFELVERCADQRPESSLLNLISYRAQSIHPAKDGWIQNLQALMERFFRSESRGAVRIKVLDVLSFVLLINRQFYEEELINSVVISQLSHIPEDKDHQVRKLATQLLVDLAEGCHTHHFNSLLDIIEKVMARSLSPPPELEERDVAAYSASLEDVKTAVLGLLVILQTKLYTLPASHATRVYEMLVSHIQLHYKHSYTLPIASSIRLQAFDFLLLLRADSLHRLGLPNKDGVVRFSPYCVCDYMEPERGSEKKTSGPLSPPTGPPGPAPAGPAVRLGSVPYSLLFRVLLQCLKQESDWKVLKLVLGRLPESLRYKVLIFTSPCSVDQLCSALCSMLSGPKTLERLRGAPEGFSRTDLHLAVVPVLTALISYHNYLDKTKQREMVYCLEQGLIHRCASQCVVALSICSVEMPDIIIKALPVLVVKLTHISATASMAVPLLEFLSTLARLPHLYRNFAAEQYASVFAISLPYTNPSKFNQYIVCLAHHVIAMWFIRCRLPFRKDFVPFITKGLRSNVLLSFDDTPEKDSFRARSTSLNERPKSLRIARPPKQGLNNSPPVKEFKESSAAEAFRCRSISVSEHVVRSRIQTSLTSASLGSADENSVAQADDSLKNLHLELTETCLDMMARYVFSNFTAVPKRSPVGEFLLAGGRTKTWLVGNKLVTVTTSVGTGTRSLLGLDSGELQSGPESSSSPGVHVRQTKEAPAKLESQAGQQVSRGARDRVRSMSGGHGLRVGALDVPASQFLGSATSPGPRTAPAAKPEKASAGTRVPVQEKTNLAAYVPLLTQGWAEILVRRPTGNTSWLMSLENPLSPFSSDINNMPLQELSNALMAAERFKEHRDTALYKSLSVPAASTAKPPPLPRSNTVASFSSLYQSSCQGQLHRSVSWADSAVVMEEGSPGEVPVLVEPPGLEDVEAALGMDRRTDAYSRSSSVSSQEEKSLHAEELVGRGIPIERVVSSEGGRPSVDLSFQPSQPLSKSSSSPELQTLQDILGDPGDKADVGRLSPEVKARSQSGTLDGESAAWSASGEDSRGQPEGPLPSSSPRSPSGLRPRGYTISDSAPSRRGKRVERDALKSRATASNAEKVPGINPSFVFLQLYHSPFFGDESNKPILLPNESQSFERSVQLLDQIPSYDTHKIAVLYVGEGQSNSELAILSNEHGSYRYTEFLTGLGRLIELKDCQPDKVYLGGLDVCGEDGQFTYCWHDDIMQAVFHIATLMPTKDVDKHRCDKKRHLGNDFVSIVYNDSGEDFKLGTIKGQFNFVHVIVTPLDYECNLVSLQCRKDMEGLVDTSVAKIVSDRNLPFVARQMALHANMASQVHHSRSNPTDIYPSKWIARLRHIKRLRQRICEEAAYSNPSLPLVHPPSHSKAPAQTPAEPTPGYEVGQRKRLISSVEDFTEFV

- binding: binds
B1: wild-type TSC1 protein (protein)
chain: MAQQANVGELLAMLDSPMLGVRDDVTAVFKENLNSDRGPMLVNTLVDYYLETSSQPALHILTTLQEPHDKHLLDRINEYVGKAATRLSILSLLGHVIRLQPSWKHKLSQAPLLPSLLKCLKMDTDVVVLTTGVLVLITMLPMIPQSGKQHLLDFFDIFGRLSSWCLKKPGHVAEVYLVHLHASVYALFHRLYGMYPCNFVSFLRSHYSMKENLETFEEVVKPMMEHVRIHPELVTGSKDHELDPRRWKRLETHDVVIECAKISLDPTEASYEDGYSVSHQISARFPHRSADVTTSPYADTQNSYGCATSTPYSTSRLMLLNMPGQLPQTLSSPSTRLITEPPQATLWSPSMVCGMTTPPTSPGNVPPDLSHPYSKVFGTTAGGKGTPLGTPATSPPPAPLCHSDDYVHISLPQATVTPPRKEERMDSARPCLHRQHHLLNDRGSEEPPGSKGSVTLSDLPGFLGDLASEEDSIEKDKEEAAISRELSEITTAEAEPVVPRGGFDSPFYRDSLPGSQRKTHSAASSSQGASVNPEPLHSSLDKLGPDTPKQAFTPIDLPCGSADESPAGDRECQTSLETSIFTPSPCKIPPPTRVGFGSGQPPPYDHLFEVALPKTAHHFVIRKTEELLKKAKGNTEEDGVPSTSPMEVLDRLIQQGADAHSKELNKLPLPSKSVDWTHFGGSPPSDEIRTLRDQLLLLHNQLLYERFKRQQHALRNRRLLRKVIKAAALEEHNAAMKDQLKLQEKDIQMWKVSLQKEQARYNQLQEQRDTMVTKLHSQIRQLQHDREEFYNQSQELQTKLEDCRNMIAELRIELKKANNKVCHTELLLSQVSQKLSNSESVQQQMEFLNRQLLVLGEVNELYLEQLQNKHSDTTKEVEMMKAAYRKELEKNRSHVLQQTQRLDTSQKRILELESHLAKKDHLLLEQKKYLEDVKLQARGQLQAAESRYEAQKRITQVFELEILDLYGRLEKDGLLKKLEEEKAEAAEAAEERLDCCNDGCSDSMVGHNEEASGHNGETKTPRPSSARGSSGSRGGGGSSSSSSELSTPEKPPHQRAGPFSSRWETTMGEASASIPTTVGSLPSSKSFLGMKARELFRNKSESQCDEDGMTSSLSESLKTELGKDLGVEAKIPLNLDGPHPSPPTPDSVGQLHIMDYNETHHEHS

— US20180214452A1
